From paper PMC7226812
Results are given in words; binding and its absence hold for the method and conditions named. In cells and extracts the contact can be indirect. Here binding means that the protein was enriched with, or labelled near, the bait; the list need not be complete. A no says only that the protein was not detected with the bait.

Amino acid sequences for entries named in this document (tags omitted). A change or cut given only in a name is not applied to a line headed by its entry.
UniProt Q13619: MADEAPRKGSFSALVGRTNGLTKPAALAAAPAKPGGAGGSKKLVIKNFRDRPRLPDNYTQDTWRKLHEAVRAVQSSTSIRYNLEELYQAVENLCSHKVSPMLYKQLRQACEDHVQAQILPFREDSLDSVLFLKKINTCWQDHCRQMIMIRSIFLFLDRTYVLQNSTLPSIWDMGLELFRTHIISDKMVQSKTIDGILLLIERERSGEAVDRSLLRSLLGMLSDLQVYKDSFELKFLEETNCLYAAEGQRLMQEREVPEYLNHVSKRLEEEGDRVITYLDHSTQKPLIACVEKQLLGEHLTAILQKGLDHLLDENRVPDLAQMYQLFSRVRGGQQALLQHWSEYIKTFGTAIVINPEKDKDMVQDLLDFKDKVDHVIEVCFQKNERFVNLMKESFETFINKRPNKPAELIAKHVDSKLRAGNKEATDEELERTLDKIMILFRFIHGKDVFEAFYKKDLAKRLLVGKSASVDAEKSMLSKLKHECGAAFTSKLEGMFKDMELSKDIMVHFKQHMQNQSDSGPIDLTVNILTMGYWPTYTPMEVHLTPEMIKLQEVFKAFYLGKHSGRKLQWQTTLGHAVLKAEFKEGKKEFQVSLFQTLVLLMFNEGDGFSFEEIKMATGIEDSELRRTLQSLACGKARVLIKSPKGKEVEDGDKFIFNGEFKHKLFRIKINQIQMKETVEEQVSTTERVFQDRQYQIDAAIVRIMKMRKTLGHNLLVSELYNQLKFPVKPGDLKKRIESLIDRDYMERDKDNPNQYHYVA

target: cullin 4A (human (endogenous in human hepatocytes of chimeric mouse liver)) (UniProt Q13619); assay: affinity purification with mass spectrometry; details: not given

Row | Binder | binding
1 | PAFAH1B1 (protein, UniProt P43034 1-410) MVLSQRQRDELNRAIADYLRSNGYEEAYSVFKKEAELDVNEELDKKYAGLLEKKWTSVIRLQKKVMELESKLNEAKEEFTSGGPLGQKRDPKEWIPRPPEKYALSGHRSPVTRVIFHPVFSVMVSASEDATIKVWDYETGDFERTLKGHTDSVQDISFDHSGKLLASCSADMTIKLWDFQGFECIRTMHGHDHNVSSVAIMPNGDHIVSASRDKTIKMWEVQTGYCVKTFTGHREWVRMVRPNQDGTLIASCSNDQTVRVWVVATKECKAELREHEHVVECISWAPESSYSSISEATGSETKKSGKPGPFLLSGSRDKTIKMWDVSTGMCLMTLVGHDNWVRGVLFHSGGKFILSCADDKTLRVWDYKNKRCMKTLNAHEHFVTSLDFHKTAPYVVTGSVDQTVKVWECR | binds
2 | Zinc Finger E-Box Binding Homeobox 2 (protein, UniProt O60315 1-1214) MKQPIMADGPRCKRRKQANPRRKNVVNYDNVVDTGSETDEEDKLHIAEDDGIANPLDQETSPASVPNHESSPHVSQALLPREEEEDEIREGGVEHPWHNNEILQASVDGPEEMKEDYDTMGPEATIQTAINNGTVKNANCTSDFEEYFAKRKLEERDGHAVSIEEYLQRSDTAIIYPEAPEELSRLGTPEANGQEENDLPPGTPDAFAQLLTCPYCDRGYKRLTSLKEHIKYRHEKNEENFSCPLCSYTFAYRTQLERHMVTHKPGTDQHQMLTQGAGNRKFKCTECGKAFKYKHHLKEHLRIHSGEKPYECPNCKKRFSHSGSYSSHISSKKCIGLISVNGRMRNNIKTGSSPNSVSSSPTNSAITQLRNKLENGKPLSMSEQTGLLKIKTEPLDFNDYKVLMATHGFSGTSPFMNGGLGATSPLGVHPSAQSPMQHLGVGMEAPLLGFPTMNSNLSEVQKVLQIVDNTVSRQKMDCKAEEISKLKGYHMKDPCSQPEEQGVTSPNIPPVGLPVVSHNGATKSIIDYTLEKVNEAKACLQSLTTDSRRQISNIKKEKLRTLIDLVTDDKMIENHNISTPFSCQFCKESFPGPIPLHQHERYLCKMNEEIKAVLQPHENIVPNKAGVFVDNKALLLSSVLSEKGMTSPINPYKDHMSVLKAYYAMNMEPNSDELLKISIAVGLPQEFVKEWFEQRKVYQYSNSRSPSLERSSKPLAPNSNPPTKDSLLPRSPVKPMDSITSPSIAELHNSVTNCDPPLRLTKPSHFTNIKPVEKLDHSRSNTPSPLNLSSTSSKNSHSSSYTPNSFSSEELQAEPLDLSLPKQMKEPKSIIATKNKTKASSISLDHNSVSSSSENSDEPLNLTFIKKEFSNSNNLDNKSTNPVFSMNPFSAKPLYTALPPQSAFPPATFMPPVQTSIPGLRPYPGLDQMSFLPHMAYTYPTGAATFADMQQRRKYQRKQGFQGELLDGAQDYMSGLDDMTDSDSCLSRKKIKKTESGMYACDLCDKTFQKSSSLLRHKYEHTGKRPHQCQICKKAFKHKHHLIEHSRLHSGEKPYQCDKCGKRFSHSGSYSQHMNHRYSYCKREAEEREAAEREAREKGHLEPTELLMNRAYLQSITPQGYSDSEERESMPRDGESEKEHEKEGEDGYGKLGRQDGDEEFEEEEEESENKSMDTDPETIRDEEETGDHSMDDSSEDGKMETKSDHEEDNMEDGM | binds
3 | structural maintenance of chromosomes protein 6 (protein, UniProt Q96SB8 1-1091) MAKRKEENFSSPKNAKRPRQEELEDFDKDGDEDECKGTTLTAAEVGIIESIHLKNFMCHSMLGPFKFGSNVNFVVGNNGSGKSAVLTALIVGLGGRAVATNRGSSLKGFVKDGQNSADISITLRNRGDDAFKASVYGNSILIQQHISIDGSRSYKLKSATGSVVSTRKEELIAILDHFNIQVDNPVSVLTQEMSKQFLQSKNEGDKYKFFMKATQLEQMKEDYSYIMETKERTKEQIHQGEERLTELKRQCVEKEERFQSIAGLSTMKTNLESLKHEMAWAVVNEIEKQLNAIRDNIKIGEDRAARLDRKMEEQQVRLNEAEQKYKDIQDKLEKISEETNARAPECMALKADVVAKKRAYNEAEVLYNRSLNEYKALKKDDEQLCKRIEELKKSTDQSLEPERLERQKKISWLKERVKAFQNQENSVNQEIEQFQQAIEKDKEEHGKIKREELDVKHALSYNQRQLKELKDSKTDRLKRFGPNVPALLEAIDDAYRQGHFTYKPVGPLGACIHLRDPELALAIESCLKGLLQAYCCHNHADERVLQALMKRFYLPGTSRPPIIVSEFRNEIYDVRHRAAYHPDFPTVLTALEIDNAVVANSLIDMRGIETVLLIKNNSVARAVMQSQKPPKNCREAFTADGDQVFAGRYYSSENTRPKFLSRDVDSEISDLENEVENKTAQILNLQQHLSALEKDIKHNEELLKRCQLHYKELKMKIRKNISEIRELENIEEHQSVDIATLEDEAQENKSKMKMVEEHMEQQKENMEHLKSLKIEAENKYDAIKFKINQLSELADPLKDELNLADSEVDNQKRGKRHYEEKQKEHLDTLNKKKRELDMKEKELEEKMSQARQICPERIEVEKSASILDKEINRLRQKIQAEHASHGDREEIMRQYQEARETYLDLDSKVRTLKKFIKLLGEIMEHRFKTYQQFRRCLTLRCKLYFDNLLSQRAYCGKMNFDHKNETLSISVQPGEGNKAAFNDMRALSGGERSFSTVCFILSLWSIAESPFRCLDEFDVYMDMVNRRIAMDLILKMADSQRFRQFILLTPQSMSSLPSSKLIRILRMSDPERGQTTLPFRPVTQEEDDDQR | binds
4 | DCAF9 (protein, UniProt Q8N5D0 1-677) MAKVNITRDLIRRQIKERGALSFERRYHVTDPFIRRLGLEAELQGHSGCVNCLEWNEKGDLLASGSDDQHTIVWDPLHHKKLLSMHTGHTANIFSVKFLPHAGDRILITGAADSKVHVHDLTVKETIHMFGDHTNRVKRIATAPMWPNTFWSAAEDGLIRQYDLRENSKHSEVLIDLTEYCGQLVEAKCLTVNPQDNNCLAVGASGPFVRLYDIRMIHNHRKSMKQSPSAGVHTFCDRQKPLPDGAAQYYVAGHLPVKLPDYNNRLRVLVATYVTFSPNGTELLVNMGGEQVYLFDLTYKQRPYTFLLPRKCHSSGEVQNGKMSTNGVSNGVSNGLHLHSNGFRLPESRGHVSPQVELPPYLERVKQQANEAFACQQWTQAIQLYSKAVQRAPHNAMLYGNRAAAYMKRKWDGDHYDALRDCLKAISLNPCHLKAHFRLARCLFELKYVAEALECLDDFKGKFPEQAHSSACDALGRDITAALFSKNDGEEKKGPGGGAPVRLRSTSRKDSISEDEMVLRERSYDYQFRYCGHCNTTTDIKEANFFGSNAQYIVSGSDDGSFFIWEKETTNLVRVLQGDESIVNCLQPHPSYCFLATSGIDPVVRLWNPRPESEDLTGRVVEDMEGASQANQRRMNADPLEVMLLNMGYRITGLSSGGAGASDDEDSSEGQVQCRPS | no binding

target: cullin 4A (human (endogenous in human hepatocytes of chimeric mouse liver)), Q13619; assay: affinity purification with mass spectrometry; details: remark: other sources report otherwise

Row | Binder | binding
5 | WDR26, Q9H7D7 1-661 (protein) MQANGAGGGGGGGGGGGGGGGGGGGQGQTPELACLSAQNGESSPSSSSSAGDLAHANGLLPSAPSAASNNSNSLNVNNGVPGGAAAASSATVAAASATTAASSSLATPELGSSLKKKKRLSQSDEDVIRLIGQHLNGLGLNQTVDLLMQESGCRLEHPSATKFRNHVMEGDWDKAENDLNELKPLVHSPHAIVVRGALEISQTLLGIIVRMKFLLLQQKYLEYLEDGKVLEALQVLRCELTPLKYNTERIHVLSGYLMCSHAEDLRAKAEWEGKGTASRSKLLDKLQTYLPPSVMLPPRRLQTLLRQAVELQRDRCLYHNTKLDNNLDSVSLLIDHVCSRRQFPCYTQQILTEHCNEVWFCKFSNDGTKLATGSKDTTVIIWQVDPDTHLLKLLKTLEGHAYGVSYIAWSPDDNYLVACGPDDCSELWLWNVQTGELRTKMSQSHEDSLTSVAWNPDGKRFVTGGQRGQFYQCDLDGNLLDSWEGVRVQCLWCLSDGKTVLASDTHQRIRGYNFEDLTDRNIVQEDHPIMSFTISKNGRLALLNVATQGVHLWDLQDRVLVRKYQGVTQGFYTIHSCFGGHNEDFIASGSEDHKVYIWHKRSELPIAELTGHTRTVNCVSWNPQIPSMMASASDDGTVRIWGPAPFIDHQNIEEECSSMDS | binds
6 | DDB2, Q92466 1-427 (protein) MAPKKRPETQKTSEIVLRPRNKRSRSPLELEPEAKKLCAKGSGPSRRCDSDCLWVGLAGPQILPPCRSIVRTLHQHKLGRASWPSVQQGLQQSFLHTLDSYRILQKAAPFDRRATSLAWHPTHPSTVAVGSKGGDIMLWNFGIKDKPTFIKGIGAGGSITGLKFNPLNTNQFYASSMEGTTRLQDFKGNILRVFASSDTINIWFCSLDVSASSRMVVTGDNVGNVILLNMDGKELWNLRMHKKKVTHVALNPCCDWFLATASVDQTVKIWDLRQVRGKASFLYSLPHRHPVNAACFSPDGARLLTTDQKSEIRVYSASQWDCPLGLIPHPHRHFQHLTPIKAAWHPRYNLIVVGRYPDPNFKSCTPYELRTIDVFDGNSGKMMCQLYDPESSGISSLNEFNPMGDTLASAMGYHILIWSQEEARTRK | no binding
